Source: publication PMC6821831, “Colorimetric Assay Reports on Acyl Carrier Protein Interactions” (Scientific Reports, 2019)
Results are given in words; binding and its absence hold for the method and conditions named.

T1: FabF (E. coli ketoacyl synthase) (E. coli), P0AAI5
T1 chain: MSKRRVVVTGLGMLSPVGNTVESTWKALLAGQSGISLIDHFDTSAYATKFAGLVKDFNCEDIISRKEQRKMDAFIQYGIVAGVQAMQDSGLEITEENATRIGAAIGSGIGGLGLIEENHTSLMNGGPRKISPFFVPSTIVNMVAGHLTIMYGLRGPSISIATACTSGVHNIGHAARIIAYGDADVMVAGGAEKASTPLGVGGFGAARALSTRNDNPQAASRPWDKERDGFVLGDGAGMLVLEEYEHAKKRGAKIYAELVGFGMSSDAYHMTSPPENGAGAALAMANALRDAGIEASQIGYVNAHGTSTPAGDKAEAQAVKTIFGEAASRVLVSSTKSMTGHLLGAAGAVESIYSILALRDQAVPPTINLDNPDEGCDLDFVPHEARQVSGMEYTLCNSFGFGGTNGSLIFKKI


Assays:
[1] = target: T1, FabF (E. coli ketoacyl synthase) (E. …); test: AUC; sedimentation velocity titration; FabF constant at 16 uM, AcpP 0-230 uM or ACT ACP 0-250 uM; 20 mM Tris-HCl pH 8.0, 150 mM NaCl, 1 mM DTT, 20 C; s(w) and EPT s(w) fast isotherms fitted globally to A + B <-> AB; both purified; settings: remark: other sources report otherwise
[2] = target: holo-ACT ACP (wild type; ACP of the actinorhodin type II PKS) (UniProt Q02054); test: AUC; sedimentation velocity of each protein alone; FabF 10-36 uM, holo-AcpP 345-488 uM, holo-ACT ACP (wild type) 98-196 uM; 20 mM Tris-HCl pH 8.0, 150 mM NaCl, 1 mM DTT, 20 C; both purified

binding [2] | Binder | binding [1]
– | holo-ACT ACP (wild type; ACP of the actinorhodin type II PKS), Q02054 1-86 (protein, here or on the partner: 4'-phosphopantetheine (Ppant) arm on the conserved serine (holo form)) MATLLTTDDLRRALVECAGETDGTDLSGDFLDLRFEDIGYDSLALMETAARLESRYGVSIPDDVAGRVDTPRELLDLINGALAEAA | no binding (tested: ACT ACP at 0-250 uM with 16 uM FabF)
no binding (tested: 98-196 uM) | holo-ACT ACP (wild type; ACP of the actinorhodin type II PKS) (protein, UniProt Q02054 1-86, 4'-phosphopantetheine (Ppant) arm on the conserved serine (holo form)) MATLLTTDDLRRALVECAGETDGTDLSGDFLDLRFEDIGYDSLALMETAARLESRYGVSIPDDVAGRVDTPRELLDLINGALAEAA | –
